The target in assay [1] is E1E2 non covalently-linked mature complex (recombinant, co-expressed in HepG2 cells) (Hepatitis C virus). The assay can be described thus: immunoprecipitation, SDS-PAGE under non-reducing conditions.
For assay [2], the target named is µ-chains of immunoglobulins (Ig). The experiment in a line: EIA.
In assay [3] the target is γ-chains of immunoglobulins (Ig). The experiment in a line: EIA.
The target of assay [4] is E1E2 non covalently-linked mature complex (recombinant, co-expressed in HepG2 cells) (Hepatitis C virus). The experiment in a line: immunoprecipitation, vaccinia virus recombinants in HepG2 cells.

These are yes or no findings as the source states them, for the method shown. For some of these results: Binding can be weak; no strength is given.

B1: monoclonal antibody D32.10 (antibody, V domains shown)
VH: EVQLQQSGAELVKPGASVKLSCTPSGFNIKDTYIHWVKQRPEQGLEWIGMINPANGNSNYDPKFQDKATITADTSSNTAYLQLSSLTSEDTAVYYCAEITTDFDVWGAGTTVTVSS
VL: NIVLTQSPPSLAVSLGQRATISCRASESVDSYGNSFLHWYQQKSGQPPKLLIYLASNLESGVPARFSGSGSRTDFTLTIDPLEADDAATYYCQQNNEAPFTFGSGTKLEIKR
notes: also called mAb D32.10; MAb D32.10
For the molecule B1, the binding result was “binds” in assay [1], “no binding” in assay [2], “no binding” in assay [3] and “binds” in assay [4].

Values taken from patent publication US20110311551A1 (INSERM, published 2011).
